Some results were stated once for a whole list of compounds, not compound by compound. For at least one compound, name, drawing or mass did not settle the structure.
system: two-spotted spider mites; experiment: Miticidal test on two-spotted spider mites (seedling dip); assay type: in vivo, Tetranvchus urticae; settings: 500 ppm active ingredient, soybean seedlings with imago mites dipped, 25° C., 13 days
Outline: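 Soybean seedlings carrying adult mites were dipped in wettable-powder dilution at 500 ppm active ingredient, air-dried, and held at 25° C for 13 days. Live mites were counted and a protective value calculated.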

Row | SMILES | protective value
1 | Cc1cc(F)c(-n2nc(OC(F)(F)C(F)OC(F)(F)C(F)(F)C(F)(F)F)c(Cl)c2Cl)cc1[S+]([O-])CC(F)(F)F (centres unmarked) [1-1063] | ≥ 90
2 | Cc1cc(F)c(-n2nc(OCC[S+](C)[O-])cc2C)cc1[S+]([O-])CC(F)(F)F (centres unmarked) [1-244] | ≥ 90
3 | CC(=O)Nc1cc(OCC(F)(F)F)nn1-c1cc([S+]([O-])CC(F)(F)F)c(C)cc1F (centres unmarked) [1-1370] | ≥ 90
4 | Cc1cc(F)c(-n2nc(OC(F)(F)C(F)OC(F)(F)C(F)(F)F)cc2C(F)F)cc1[S+]([O-])CC(F)(F)F (centres unmarked) [1-1534] | ≥ 90
5 | Cc1cc(F)c(-n2cc(Br)c(OCC(F)(F)C(F)(F)C(F)(F)C(F)(F)F)n2)cc1[S+]([O-])CC(F)(F)F (centres unmarked) [1-1510] | ≥ 90
6 | CNc1cc(OC(F)(F)C(F)OC(F)(F)F)nn1-c1cc(SCC(F)(F)F)c(C)cc1F (centres unmarked) [1-287] | ≥ 90
7 | Cc1cc(F)c(-n2nc(OC(F)(F)C(F)OC(F)(F)C(F)(F)F)cc2NC=O)cc1[S+]([O-])CC(F)(F)F (centres unmarked) [1-1608] | ≥ 90
8 | Cc1cc(F)c(-n2nc(OC(F)(F)C(F)Cl)cc2C#N)cc1SCC(F)(F)F (centres unmarked) [1-1459] | ≥ 90
9 | COc1cc(OCC(F)(F)C(F)(F)C(F)(F)F)nn1-c1cc(SCC(F)(F)F)c(C)cc1F [1-197] | ≥ 90
10 | COc1cc(OCC(F)(F)C(F)(F)C(F)(F)F)nn1-c1cc([S+]([O-])CC(F)(F)F)c(C)cc1F (centres unmarked) [1-198] | ≥ 90
11 | Cc1cc(F)c(-n2nc(OC(F)(F)C(F)OC(F)(F)C(F)(F)F)cc2Cl)cc1[S+]([O-])CC(F)(F)F (centres unmarked) [1-891] | ≥ 90
12 | Cc1cc(F)c(-n2nc(OCCC(C)(C)C)cc2C)cc1SCC(F)(F)F [1-223] | ≥ 90
13 | Cc1cc(F)c(-n2nc(OCC(F)(F)F)c(Cl)c2N)cc1[S+]([O-])CC(F)(F)F (centres unmarked) [1-1384] | ≥ 90
14 | Cc1cc(F)c(-n2nc(OC(F)(F)C(F)OC(F)(F)F)c(Br)c2Br)cc1SCC(F)(F)F (centres unmarked) [1-1104] | ≥ 90
15 | COCC(=O)Nc1cc(OCC(F)(F)F)nn1-c1cc(SCC(F)(F)F)c(C)cc1F [1-1431] | ≥ 90
16 | Cc1cc(F)c(-n2cc(Cl)c(OCC(F)(F)F)n2)cc1SCC(F)(F)F [1-1379] | ≥ 90
17 | Cc1cc(F)c(-n2nc(OC(F)(F)C(F)(F)C(F)(F)F)cc2C)cc1[S+]([O-])CC(F)(F)F (centres unmarked) [1-270] | ≥ 90
18 | Cc1cc(F)c(-n2ccc(OC(F)(F)C(F)OC(F)(F)F)n2)cc1SCC(F)(F)F (centres unmarked) [1-410] | ≥ 90
19 | Cc1cc(F)c(-n2nc(OC(F)(F)C(F)OC(F)(F)C(F)(F)F)c(Br)c2N)cc1SCC(F)(F)F (centres unmarked) [1-1282] | ≥ 90
20 | Cc1cc(F)c(-n2cc(Cl)c(OC(F)(F)C(F)(F)C(F)(F)F)n2)cc1[S+]([O-])CC(F)(F)F (centres unmarked) [1-1135] | ≥ 90
21 | CC(=O)Nc1c(Cl)c(OCC(F)(F)C(F)(F)F)nn1-c1cc([S+]([O-])CC(F)(F)F)c(C)cc1F (centres unmarked) [1-210] | ≥ 90
22 | COc1cc(OC(F)(F)C(F)Cl)nn1-c1cc(SCC(F)(F)F)c(C)cc1F (centres unmarked) [1-1465] | ≥ 90
23 | Cc1cc(F)c(-n2nc(OCC(F)(F)C(F)(F)F)cc2C=O)cc1[S+]([O-])CC(F)(F)F (centres unmarked) [1-200] | ≥ 90
24 | Cc1cc(F)c(-n2nc(OCCCC(F)(F)C(F)(F)C(F)(F)C(F)(F)F)cc2C)cc1SCC(F)(F)F [1-307] | ≥ 90
25 | Cc1cc(F)c(-n2nc(OCC[S+](C)[O-])cc2C)cc1SCC(F)(F)F (centres unmarked) [1-243] | ≥ 90
26 | Cc1cc(F)c(-n2nc(OC(F)(F)C(F)F)c(Br)c2Br)cc1[S+]([O-])CC(F)(F)F (centres unmarked) [1-1409] | ≥ 90
27 | CC(=O)N(C(C)=O)c1c(Cl)c(OCC(F)(F)C(F)(F)F)nn1-c1cc(SCC(F)(F)F)c(C)cc1F [1-213] | ≥ 90
28 | Cc1cc(F)c(-n2ccc(OC(F)F)n2)cc1SCC(F)(F)F [1-1355] | ≥ 90
29 | Cc1cc(F)c(-n2nc(OCCCC(F)(F)C(F)(F)C(F)(F)C(F)(F)F)cc2C)cc1[S+]([O-])CC(F)(F)F (centres unmarked) [1-308] | ≥ 90
